The list shows a part of the results.

Sequences of proteins named here, by UniProt entry; tags and fusion partners are left off. A change or cut given only in a name is not applied to a line headed by its entry.
UniProt P42684, whole entry, looked up: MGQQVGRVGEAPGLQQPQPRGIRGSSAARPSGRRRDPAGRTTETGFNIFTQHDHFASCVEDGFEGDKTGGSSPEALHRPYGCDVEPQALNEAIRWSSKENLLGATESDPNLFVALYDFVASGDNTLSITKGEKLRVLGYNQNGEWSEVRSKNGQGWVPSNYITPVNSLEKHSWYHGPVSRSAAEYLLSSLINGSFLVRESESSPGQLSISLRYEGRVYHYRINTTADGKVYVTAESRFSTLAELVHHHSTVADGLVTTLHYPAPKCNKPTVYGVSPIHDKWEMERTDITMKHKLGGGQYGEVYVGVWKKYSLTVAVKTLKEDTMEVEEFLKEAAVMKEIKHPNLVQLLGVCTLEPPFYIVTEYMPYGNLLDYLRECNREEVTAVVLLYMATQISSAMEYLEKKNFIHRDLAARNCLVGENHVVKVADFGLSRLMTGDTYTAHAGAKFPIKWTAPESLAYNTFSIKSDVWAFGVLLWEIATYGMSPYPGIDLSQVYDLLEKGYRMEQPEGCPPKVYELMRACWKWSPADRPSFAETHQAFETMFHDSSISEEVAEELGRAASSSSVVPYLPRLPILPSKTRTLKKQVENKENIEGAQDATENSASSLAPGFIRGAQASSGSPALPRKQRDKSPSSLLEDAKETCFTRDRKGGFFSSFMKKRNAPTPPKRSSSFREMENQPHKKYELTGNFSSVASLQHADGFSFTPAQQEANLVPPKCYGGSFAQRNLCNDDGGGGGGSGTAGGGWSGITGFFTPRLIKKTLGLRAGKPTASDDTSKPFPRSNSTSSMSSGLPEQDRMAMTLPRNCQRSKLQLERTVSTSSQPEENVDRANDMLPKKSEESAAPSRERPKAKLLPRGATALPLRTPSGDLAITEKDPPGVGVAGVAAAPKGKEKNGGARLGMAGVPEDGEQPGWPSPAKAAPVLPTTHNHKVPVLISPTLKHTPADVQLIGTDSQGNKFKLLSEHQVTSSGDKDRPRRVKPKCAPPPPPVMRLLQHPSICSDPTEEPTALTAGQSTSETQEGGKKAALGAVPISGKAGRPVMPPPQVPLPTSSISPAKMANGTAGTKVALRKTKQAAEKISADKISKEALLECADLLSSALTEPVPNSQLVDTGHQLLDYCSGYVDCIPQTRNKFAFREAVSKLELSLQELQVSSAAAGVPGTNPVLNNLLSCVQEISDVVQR
UniProt Q8NFV4: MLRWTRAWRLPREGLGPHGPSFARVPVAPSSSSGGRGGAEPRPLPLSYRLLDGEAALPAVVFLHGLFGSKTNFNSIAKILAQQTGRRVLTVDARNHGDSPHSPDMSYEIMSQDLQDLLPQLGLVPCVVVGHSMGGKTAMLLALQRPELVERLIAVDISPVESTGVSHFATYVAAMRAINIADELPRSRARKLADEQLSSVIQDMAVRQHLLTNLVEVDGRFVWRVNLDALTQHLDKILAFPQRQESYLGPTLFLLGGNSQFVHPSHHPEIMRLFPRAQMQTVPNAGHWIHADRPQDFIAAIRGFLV
UniProt O75027: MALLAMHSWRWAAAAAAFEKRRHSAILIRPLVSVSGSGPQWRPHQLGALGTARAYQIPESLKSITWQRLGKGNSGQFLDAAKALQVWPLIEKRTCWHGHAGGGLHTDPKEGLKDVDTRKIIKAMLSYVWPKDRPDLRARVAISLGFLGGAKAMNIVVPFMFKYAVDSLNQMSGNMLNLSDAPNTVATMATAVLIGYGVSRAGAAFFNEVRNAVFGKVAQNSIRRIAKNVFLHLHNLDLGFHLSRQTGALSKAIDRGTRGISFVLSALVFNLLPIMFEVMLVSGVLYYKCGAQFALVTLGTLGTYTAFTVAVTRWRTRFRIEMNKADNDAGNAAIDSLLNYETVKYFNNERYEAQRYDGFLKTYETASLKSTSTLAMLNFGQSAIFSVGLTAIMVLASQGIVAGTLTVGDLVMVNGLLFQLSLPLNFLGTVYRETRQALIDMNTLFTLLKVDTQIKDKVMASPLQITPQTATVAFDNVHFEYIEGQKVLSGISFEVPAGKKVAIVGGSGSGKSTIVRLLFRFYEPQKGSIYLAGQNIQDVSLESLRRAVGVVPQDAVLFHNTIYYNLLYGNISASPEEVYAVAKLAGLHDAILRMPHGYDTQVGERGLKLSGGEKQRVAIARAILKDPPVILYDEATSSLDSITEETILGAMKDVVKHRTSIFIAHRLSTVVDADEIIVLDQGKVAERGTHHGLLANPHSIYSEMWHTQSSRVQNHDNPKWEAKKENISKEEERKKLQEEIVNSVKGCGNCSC
UniProt Q8N2K0: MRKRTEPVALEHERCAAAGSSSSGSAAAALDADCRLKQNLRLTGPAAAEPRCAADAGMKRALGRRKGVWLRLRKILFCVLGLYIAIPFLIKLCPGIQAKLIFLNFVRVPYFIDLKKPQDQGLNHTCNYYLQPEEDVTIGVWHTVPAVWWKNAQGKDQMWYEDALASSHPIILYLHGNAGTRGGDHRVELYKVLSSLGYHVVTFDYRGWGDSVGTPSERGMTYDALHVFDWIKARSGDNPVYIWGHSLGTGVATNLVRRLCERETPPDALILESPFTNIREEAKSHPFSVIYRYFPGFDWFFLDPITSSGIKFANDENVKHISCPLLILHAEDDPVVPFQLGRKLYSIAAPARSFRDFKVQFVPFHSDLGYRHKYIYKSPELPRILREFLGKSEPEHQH
UniProt Q9NX38: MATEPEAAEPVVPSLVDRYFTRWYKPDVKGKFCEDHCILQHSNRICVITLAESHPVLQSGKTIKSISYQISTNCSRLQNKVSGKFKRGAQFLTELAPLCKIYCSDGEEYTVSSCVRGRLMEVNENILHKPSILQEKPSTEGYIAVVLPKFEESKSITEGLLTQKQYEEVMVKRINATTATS
UniProt P49588, whole entry, looked up: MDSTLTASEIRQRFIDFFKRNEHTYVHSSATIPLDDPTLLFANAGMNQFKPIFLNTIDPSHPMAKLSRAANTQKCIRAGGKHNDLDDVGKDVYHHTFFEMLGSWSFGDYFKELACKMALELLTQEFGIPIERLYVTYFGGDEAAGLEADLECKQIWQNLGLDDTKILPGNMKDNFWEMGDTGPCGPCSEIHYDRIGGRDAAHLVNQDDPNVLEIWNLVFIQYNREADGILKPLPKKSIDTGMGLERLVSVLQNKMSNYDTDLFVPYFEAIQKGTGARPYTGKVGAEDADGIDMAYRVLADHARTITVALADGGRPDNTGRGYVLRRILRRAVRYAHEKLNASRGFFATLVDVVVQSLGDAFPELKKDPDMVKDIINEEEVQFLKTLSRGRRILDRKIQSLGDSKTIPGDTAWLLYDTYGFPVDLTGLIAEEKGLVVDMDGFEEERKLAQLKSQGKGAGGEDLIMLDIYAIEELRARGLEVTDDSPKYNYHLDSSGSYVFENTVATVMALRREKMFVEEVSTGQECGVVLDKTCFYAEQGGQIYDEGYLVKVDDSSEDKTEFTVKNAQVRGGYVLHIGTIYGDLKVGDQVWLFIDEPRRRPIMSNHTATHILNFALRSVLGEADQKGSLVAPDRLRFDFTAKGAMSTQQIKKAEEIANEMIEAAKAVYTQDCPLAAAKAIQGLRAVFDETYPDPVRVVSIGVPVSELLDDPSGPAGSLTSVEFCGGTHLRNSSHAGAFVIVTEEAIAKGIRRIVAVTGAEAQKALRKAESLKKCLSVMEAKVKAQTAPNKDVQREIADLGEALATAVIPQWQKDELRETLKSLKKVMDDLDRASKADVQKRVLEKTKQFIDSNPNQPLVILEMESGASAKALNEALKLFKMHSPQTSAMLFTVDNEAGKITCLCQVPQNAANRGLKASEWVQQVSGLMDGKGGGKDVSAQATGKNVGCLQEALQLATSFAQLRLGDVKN
UniProt Q8WTS1: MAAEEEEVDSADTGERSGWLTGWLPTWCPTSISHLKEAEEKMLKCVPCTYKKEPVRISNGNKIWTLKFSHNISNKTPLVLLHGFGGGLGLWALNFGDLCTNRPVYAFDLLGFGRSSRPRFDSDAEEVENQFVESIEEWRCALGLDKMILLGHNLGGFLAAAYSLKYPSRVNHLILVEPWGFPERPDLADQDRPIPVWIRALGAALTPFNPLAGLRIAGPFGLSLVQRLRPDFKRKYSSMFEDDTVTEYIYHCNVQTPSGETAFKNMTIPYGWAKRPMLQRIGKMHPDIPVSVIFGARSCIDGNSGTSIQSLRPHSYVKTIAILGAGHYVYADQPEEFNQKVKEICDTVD
UniProt P33527: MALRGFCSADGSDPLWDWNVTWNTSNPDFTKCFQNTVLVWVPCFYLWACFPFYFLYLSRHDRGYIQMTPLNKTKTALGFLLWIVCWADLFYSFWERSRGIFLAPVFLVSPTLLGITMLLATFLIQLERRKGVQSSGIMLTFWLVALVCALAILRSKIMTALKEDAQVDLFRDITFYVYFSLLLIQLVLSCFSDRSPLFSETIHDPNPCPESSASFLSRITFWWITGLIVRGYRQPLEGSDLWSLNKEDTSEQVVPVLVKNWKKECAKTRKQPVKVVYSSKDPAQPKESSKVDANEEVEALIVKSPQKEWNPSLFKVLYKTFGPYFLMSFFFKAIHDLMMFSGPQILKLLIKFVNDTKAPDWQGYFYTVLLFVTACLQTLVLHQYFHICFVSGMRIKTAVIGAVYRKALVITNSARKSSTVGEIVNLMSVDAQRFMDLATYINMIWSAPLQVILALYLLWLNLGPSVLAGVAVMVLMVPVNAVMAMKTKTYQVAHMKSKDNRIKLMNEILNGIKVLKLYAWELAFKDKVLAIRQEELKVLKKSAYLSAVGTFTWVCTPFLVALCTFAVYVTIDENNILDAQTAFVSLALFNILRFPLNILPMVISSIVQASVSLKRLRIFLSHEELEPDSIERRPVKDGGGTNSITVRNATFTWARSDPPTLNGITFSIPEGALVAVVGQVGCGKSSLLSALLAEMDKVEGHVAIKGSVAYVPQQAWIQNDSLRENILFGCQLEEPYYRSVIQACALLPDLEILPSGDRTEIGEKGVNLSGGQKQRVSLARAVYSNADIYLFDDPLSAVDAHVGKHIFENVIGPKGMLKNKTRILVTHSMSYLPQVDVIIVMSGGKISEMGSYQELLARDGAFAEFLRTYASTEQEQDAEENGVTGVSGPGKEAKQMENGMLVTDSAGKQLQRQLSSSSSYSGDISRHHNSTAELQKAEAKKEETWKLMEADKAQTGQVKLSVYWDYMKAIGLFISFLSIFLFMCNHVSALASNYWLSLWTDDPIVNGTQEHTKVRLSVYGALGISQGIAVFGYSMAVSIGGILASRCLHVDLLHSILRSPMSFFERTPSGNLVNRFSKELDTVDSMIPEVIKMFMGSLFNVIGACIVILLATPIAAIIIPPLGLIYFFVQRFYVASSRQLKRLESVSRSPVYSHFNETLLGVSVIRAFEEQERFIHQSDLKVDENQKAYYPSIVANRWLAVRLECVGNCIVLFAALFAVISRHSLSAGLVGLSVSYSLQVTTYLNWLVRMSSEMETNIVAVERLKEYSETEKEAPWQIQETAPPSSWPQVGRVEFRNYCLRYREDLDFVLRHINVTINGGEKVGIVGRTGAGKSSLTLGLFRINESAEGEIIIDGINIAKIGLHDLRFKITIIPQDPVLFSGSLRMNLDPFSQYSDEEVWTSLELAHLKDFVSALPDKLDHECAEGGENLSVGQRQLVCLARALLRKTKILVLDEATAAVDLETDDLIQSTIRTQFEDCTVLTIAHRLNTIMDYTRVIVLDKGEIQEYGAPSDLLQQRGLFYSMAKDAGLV

What all share (experiment): log2 fold change, soluble protein after heating vs DMSO (PISA); higher = thermal stabilisation; K562 lysate, 10 uM; active = over 0.2 and 3.5 SD of the protein, either way, in both replicates (recomputed)
Compound in assay [1]: NCC(=O)Nc1ccc(-n2nc(C(F)(F)F)cc2-c2ccc3c(ccc4ccccc43)c2)cc1
In a few lines: (§1)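 Thermal stability, expressed as log-two fold change relative to solvent controls, is given from duplicates. Crude K562 extract in PBS pH 7.4 with 1 mM MgCl2, at 1 mg/mL protein, was treated with 10 μM compound for 30 min and heated in aliquots for 3 min across 48°C-58°C. After pooling, adjustment to 0.5% NP-40 at 4°C and centrifugation at 21,000xg for 90 min, supernatant protein was measured by TMTpro 16plex LC-MS/MS with channel sums equalised.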

Compound in assay [2]: O=C(CCCCCCC(=O)Nc1ccccc1)NO [vorinostat]
An outline of the steps: as §1

Compound in assay [3]: O=C(O)c1ccc2c(c1)nc(Nc1cccc(Cl)c1)c1ccncc12 [silmitasertib]
An outline of the steps: as §1

Compound in assay [4]: O=C1NC(=O)C(c2cnc3ccccn23)=C1c1cn2c3c(cc(F)cc13)CN(C(=O)N1CCCCC1)CC2
In a few lines: as §1

Compound in assay [5]: c1cn2cc(-c3ccc4cn[nH]c4c3)nc(Nc3ccc(N4CCOCC4)cc3)c2n1 [entospletinib]
In a few lines: as §1

Consider ABL2 (UniProt P42684), for which the log2 fold change in assay [1] was inactive: -0.093; in assay [2], inactive: -0.274; in assay [3], inactive: 0.073; in assay [4], inactive: -0.055; in assay [5], inactive: -0.05.

Regarding ABHD11 (UniProt Q8NFV4), the log2 fold change in assay [1] is inactive: -0.001; in assay [2], inactive: 0.195; in assay [3] it was active: 0.324; in assay [4] it was inactive: 0.003; in assay [5], inactive: 0.05.

As to ABCB7 isoform 2 (UniProt O75027), the log2 fold change was inactive: -0.06 in assay [1]; inactive: 0.24 in assay [2]; inactive: -0.025 in assay [3]; inactive: -0.019 in assay [4]; inactive: -0.022 in assay [5].

In the case of A0A494C100, A0A494C100, the log2 fold change in assay [1] is inactive: 0.017.

For the target ABHD12 isoform 2 (UniProt Q8N2K0), the log2 fold change is inactive: -0.003 in assay [1]; active: 0.392 in assay [2]; inactive: -0.026 in assay [3]; inactive: -0.023 in assay [4]; inactive: -0.023 in assay [5].

Consider ABITRAM (UniProt Q9NX38), for which the log2 fold change in assay [1] is inactive: 0.043; in assay [2], inactive: -0.249; in assay [3], inactive: 0.028; in assay [4] it was inactive: 0.005; in assay [5], inactive: -0.012.

As to AARS (UniProt P49588), the log2 fold change in assay [1] was inactive: -0.002; in assay [2] it was inactive: 0.001; in assay [3] it was inactive: 0.015; in assay [4], inactive: -0.009; in assay [5], inactive: 0.017.

ABCE1 (UniProt P61221): the log2 fold change in assay [1] is inactive: 0.001; in assay [2] it was inactive: 0.104; in assay [3], inactive: -0.045; in assay [4], inactive: -0.015; in assay [5], inactive: 0.072.

For ABHD5 (UniProt Q8WTS1), the log2 fold change is inactive: -0.173 in assay [1]; inactive: 0.075 in assay [2]; inactive: 0 in assay [3]; inactive: 0.014 in assay [4]; inactive: -0.09 in assay [5].

On to ABCC1 (UniProt P33527), for which the log2 fold change was inactive: -0.015 in assay [1]; inactive: 0.038 in assay [2]; inactive: 0.024 in assay [3]; inactive: 0.01 in assay [4]; inactive: -0.029 in assay [5].

Values taken from the supplement of paper PMC10849652.
